{"sequences": {"note": "Protein sequences, listed by entry. Tags and fused reporters are not part of them.", "UniProt P18054, whole entry, looked up": "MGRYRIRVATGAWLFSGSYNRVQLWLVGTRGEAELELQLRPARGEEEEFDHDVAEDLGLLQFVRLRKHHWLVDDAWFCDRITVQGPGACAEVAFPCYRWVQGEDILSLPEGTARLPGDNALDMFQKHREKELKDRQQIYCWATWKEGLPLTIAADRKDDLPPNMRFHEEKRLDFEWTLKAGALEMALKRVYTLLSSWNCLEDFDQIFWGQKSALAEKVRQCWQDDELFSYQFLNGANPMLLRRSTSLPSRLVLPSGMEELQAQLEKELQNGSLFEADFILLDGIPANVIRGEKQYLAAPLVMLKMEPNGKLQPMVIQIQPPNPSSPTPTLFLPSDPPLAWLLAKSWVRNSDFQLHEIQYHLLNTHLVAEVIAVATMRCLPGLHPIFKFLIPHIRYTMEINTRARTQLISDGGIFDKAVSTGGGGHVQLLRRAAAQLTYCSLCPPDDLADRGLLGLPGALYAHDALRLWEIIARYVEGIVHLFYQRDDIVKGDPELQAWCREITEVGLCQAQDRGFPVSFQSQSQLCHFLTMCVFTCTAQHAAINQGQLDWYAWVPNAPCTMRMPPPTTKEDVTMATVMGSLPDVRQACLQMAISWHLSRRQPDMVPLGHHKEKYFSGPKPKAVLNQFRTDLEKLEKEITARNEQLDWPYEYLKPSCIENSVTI"}, "source": "PubChem BioAssay AID1671190", "about": "(National Center for Advancing Translational Sciences (NCATS), 2021)", "note": "The campaign covered roughly 580,000 compounds. About 6,100 (1.1%) were called active. Inconclusive means that the source gave no clear call. Such entries were picked first, then a sample of the others. Calls follow the shape of the dose curve; as a rule, active = well fitted inhibition curve with a large enough effect; inconclusive = small, poorly fitted or top-dose-only effect, or another doubt; inactive = no such curve, though single readings can be large or run the other way. A potency beside an inconclusive call is a rough fit, not a confirmed value. % is scaled to controls: 0 for no effect and ±100 for the full control effect; potency is read from the fitted curve at half-maximal effect."}
{"target": "Polyunsaturated fatty acid lipoxygenase ALOX12 (Homo sapiens) (UniProt P18054)", "experiment": "Primary qHTS assay for inhibitors of human arachidonate 12S-lipoxygenase (ALOX12): Round 2", "conditions": "purified 12hLO, xylenol orange hydroperoxide absorbance; activity change, negative = inhibition: at 108 µM (top of the series) unless noted", "method_in_brief": "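Purified human 12hLO at 150 nM in 25 mM Hepes, 0.01% Triton X-100, pH 7.0, preincubated 15 min at room temperature with compound. Reaction started with 40 uM arachidonic acid, 30 min at room temperature. Hydroperoxide measured by Fe-xylenol orange, 573/405 nm absorbance ratio.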"}
{"molecule": "CCOC(=O)N1CCC(NC(=O)CCc2c(C)nc3c(c(C)nn3C(C)(C)C)c2C)CC1", "activity change, negative = inhibition": "inactive: -25.8%"}
{"molecule": "Cn1c(C=O)c(-c2ccc3cc[nH]c3c2)c2ccccc21", "Potency": "inconclusive: 79.4 µM [inhibitor, partial curve, poor fit]"}
{"molecule": "CCOc1ccc(C(=O)CCC(=O)NN2CCCCC2)cc1", "activity change, negative = inhibition": "inactive: 1.94%"}
{"molecule": "Cc1cc(NC(=O)CCC(=O)N(Cc2cccs2)C(C(=O)NC2CCCC2)c2ccncc2)no1", "note": "(stereo not given)", "Potency": "inconclusive: 35.5 µM [inhibitor, single point]"}
{"molecule": "FC(F)(F)c1cccc(CNC2c3ccccc3-c3ccccc32)c1", "Potency": "inconclusive: 0.0398 µM [inhibitor, full curve, poor fit]"}
{"molecule": "CCC(=O)Nc1c(C)cc(C)cc1C", "activity change, negative = inhibition": "inconclusive: -34% [inhibitor]"}
{"molecule": "CC(C)OCCCNc1ncnc2c1CN(C1CCCNCC1)C(=O)CN2C", "note": "(stereo not given)", "Potency": "inconclusive: 2.82 µM [inhibitor, full curve]"}
{"molecule": "COc1ccc(C(=O)Nc2cccc3cccnc23)cc1Cl", "Potency": "inconclusive: 44.7 µM [inhibitor, partial curve, poor fit]"}
{"molecule": "CCOC(=O)c1c(C)n(S(=O)(=O)c2ccc(C)cc2)c2ccc(O)c(C(=O)O)c12", "Potency": "active: 56.2 µM"}
{"molecule": "O=C(COC(=O)c1ccc(O)cc1)Nc1ncc(Cl)cc1Cl", "activity change, negative = inhibition": "inconclusive: -30.1% [inhibitor]"}
{"molecule": "O=C(c1ccc(Cl)cc1)N1CCC(n2cc(-c3cccnc3)[nH]c2=O)CC1", "Potency": "inconclusive: 79.4 µM [inhibitor, partial curve, poor fit]"}
{"molecule": "Cn1cnnc1CC1CCCNC1", "note": "(stereo not given)", "Potency": "inconclusive: 6.31 µM [inhibitor, full curve]"}
{"molecule": "CCCN(CCC)Cc1cc(=O)oc2cc(OC)c(Cl)cc12", "Potency": "active: 31.6 µM"}
{"molecule": "CC(/C=N/NC(=O)c1cc(-c2ccc3ccccc3c2)n[nH]1)=C\\c1ccco1", "Potency": "inconclusive: 79.4 µM [inhibitor, single point]"}
{"molecule": "O=C(Cn1ccn2nc(-c3ccccc3)c(CO)c2c1=O)Nc1ccc2c(c1)OCCO2", "Potency": "inconclusive: 79.4 µM [inhibitor, single point]"}
{"molecule": "O=C(O)c1ccc(F)c(Cl)c1", "Potency": "inconclusive: 100 µM [inhibitor, single point]"}
{"molecule": "CCc1ccc(NC(=O)CSc2nccn2-c2cccc(C)c2C)cc1", "activity change, negative = inhibition": "inactive: -2.76%"}
{"molecule": "CC(C)(C)n1nnnc1CN1CCN2CCCC2C1", "note": "(stereo not given)", "Potency": "inconclusive: 39.8 µM [inhibitor, partial curve, poor fit]"}
{"molecule": "O=C(NP(=O)(N1CCCC1)N1CCCC1)C1=C(N2CCOCC2)/C(=C/c2cccc([N+](=O)[O-])c2)CC1", "Potency": "inconclusive: 50.1 µM [inhibitor, partial curve, poor fit]"}
{"molecule": "COc1ccc(/C=C2\\N=C(SC)SC2=O)cc1C", "activity change, negative = inhibition": "inactive: -48.1%"}
{"molecule": "Cc1oc(-c2ccccc2)[n+]([O-])c1C", "Potency": "inconclusive: 1.78 µM [inhibitor, full curve]"}
{"molecule": "CC(=O)c1c(C)[nH]c(C(=O)C(C)OC(=O)c2cccc(O)c2)c1C", "note": "(stereo not given)", "Potency": "inconclusive: 39.8 µM [inhibitor, partial curve, poor fit]"}
{"molecule": "Cc1nc2cccc(C(=O)Oc3ccc(Cl)cc3)c2o1", "Potency": "inconclusive: 44.7 µM [inhibitor, partial curve]"}
{"molecule": "COc1cccc(C=NCCNC(=O)c2nonc2N)c1O", "activity change, negative = inhibition": "inactive: -9.48%"}
{"molecule": "Cc1ccc(OCC(=O)Nc2cc(NC(=O)COc3ccc(C)cc3)cc(C(=O)O)c2)cc1", "activity change, negative = inhibition": "inactive: -13.4%"}
{"molecule": "CC(=O)N1CCN(C(=O)c2cc(-c3ccc(C)o3)nc3ccccc23)CC1", "Potency": "inconclusive: 50.1 µM [inhibitor, partial curve, poor fit]"}
{"molecule": "Nc1ccc(C=C2C=Cc3ccccc32)cc1", "Potency": "inconclusive: 89.1 µM [inhibitor, single point]"}
{"molecule": "Cc1cn2nc(C(=O)N3CCC(C(=O)Nc4ccccc4)CC3)cc2c(=O)[nH]1", "activity change, negative = inhibition": "inactive: 17%"}
{"molecule": "Cc1ccc(CC(=O)N2CCC(c3n[nH]c(=O)n3-c3ccc(C)cc3)CC2)cc1", "Potency": "inconclusive: 39.8 µM [inhibitor, partial curve, poor fit]"}
{"molecule": "O=C(N/N=C1/CCc2ccccc21)C1CC1", "activity change, negative = inhibition": "inactive: 5.14%"}
{"molecule": "O=C(C1CCN(S(=O)(=O)Cc2ccccc2)CC1)N1CCN(c2ccc(F)cc2)CC1", "Potency": "inconclusive: 158 µM [inhibitor, partial curve, poor fit]"}
{"molecule": "COC(=O)c1ccc(CN2C(=O)[C@@H]3C[C@@H](O)CN3C3(CN(Cc4cccc(OC(F)(F)F)c4)C3)C2=O)cc1", "activity change, negative = inhibition": "inactive: -5.66%"}
{"molecule": "N#C/C(=C\\c1c2ccccc2cc2ccccc12)C(=O)NCCc1ccccc1", "Potency": "inconclusive: 17.8 µM [inhibitor, single point]"}
{"molecule": "Cc1n[nH]c(=O)c2c(NC(=O)CSc3nnnn3-c3ccccc3)oc(C)c12", "Potency": "inconclusive: 50.1 µM [inhibitor, partial curve, poor fit]"}
{"molecule": "CC(C)c1ccccc1OCC(=O)NC1CCc2ccccc21", "note": "(stereo not given)", "activity change, negative = inhibition": "inactive: -11.3%"}
{"molecule": "N=c1c(C(=O)NCc2ccco2)cc2c(=O)n3ccccc3nc2n1CCc1ccccc1", "activity change, negative = inhibition": "inactive: 0%"}
{"molecule": "CNC(=O)c1ccsc1NC(=O)c1ccc(Cl)s1", "Potency": "inconclusive: 31.6 µM [inhibitor, partial curve]"}
{"molecule": "CN(CC(=O)Nc1ccccc1Cl)C(=O)COC(=O)CSc1ccc(F)cc1", "activity change, negative = inhibition": "inactive: -23.6%"}
{"molecule": "CCn1ccnc1C(O)c1cccc(OC)c1OC", "note": "(stereo not given)", "Potency": "inconclusive: 25.1 µM [inhibitor, partial curve, poor fit]"}
{"molecule": "O=C(O)CCCCCN1C(=O)CC(c2ccccc2)CC1=O", "activity change, negative = inhibition": "inactive: -12%"}
{"molecule": "COc1cc(NC(=O)Cn2cnc3ccccc3c2=O)c(OC)cc1Cl", "Potency": "inconclusive: 44.7 µM [inhibitor, partial curve, poor fit]"}
{"molecule": "COc1ccnc(-n2cccc2/C=N/O)c1C#N", "Potency": "inconclusive: 126 µM [inhibitor, partial curve, poor fit]"}
{"molecule": "CCn1c(SCC(=O)Nc2ccc3c(c2)OCO3)nnc1-c1cnccn1", "activity change, negative = inhibition": "inactive: 3.33%"}
{"molecule": "COc1ccc(CNC(=O)CCN2C(=S)NC(C)(C)CC2C)cc1", "note": "(stereo not given)", "Potency": "inconclusive: 100 µM [inhibitor, single point]"}
{"molecule": "COCCNC(=O)c1cc(-c2ccccc2C(F)(F)F)nc2onc(C3CCCN3)c12", "note": "(stereo not given)", "Potency": "inconclusive: 14.1 µM [inhibitor, full curve]"}
{"molecule": "CCn1c(CO)nnc1C1CC(NC(=O)c2cnc3sccn3c2=O)C1", "note": "(stereo not given)", "activity change, negative = inhibition": "inactive: 35.5%"}
{"molecule": "COC(CNC(=O)c1cccc(-n2c(=S)[nH]c3cc(Cl)ccc3c2=O)c1)OC", "Potency": "active: 1.78 µM"}
{"molecule": "N#C/C(=C\\c1cn(CC(=O)NCc2ccco2)c2ccccc12)C(=O)N1CCCC1", "Potency": "inconclusive: 31.6 µM [inhibitor, partial curve, poor fit]"}
{"molecule": "CC(Nc1ccc(NS(C)(=O)=O)cc1)C(=O)Nc1ccc(Cl)cn1", "note": "(stereo not given)", "Potency": "inconclusive: 141 µM [inhibitor, partial curve, poor fit]"}
{"molecule": "Cc1ccc(Cn2cc(/C=C(/C#N)C(=O)Nc3cccc(Cl)c3)c3ccccc32)cc1", "Potency": "inconclusive: 44.7 µM [inhibitor, partial curve, poor fit]"}
{"molecule": "CC1CN(c2ccccn2)C(C)CN1C(=S)Nc1ccccc1", "note": "(stereo not given)", "Potency": "inconclusive: 31.6 µM [inhibitor, partial curve, poor fit]"}
{"molecule": "Cc1cc(C)cc(C(O)c2ncc(-c3ccccc3)[nH]2)c1", "note": "(stereo not given)", "Potency": "inconclusive: 0.224 µM [inhibitor, full curve, poor fit]"}
{"molecule": "COc1ccc(S(=O)(=O)NCc2ccccn2)cc1OC", "Potency": "inconclusive: 7.94 µM [inhibitor, partial curve]"}
{"molecule": "CC1Oc2ccccc2OC1C(=O)Nc1nccs1", "note": "(stereo not given)", "Potency": "inconclusive: 22.4 µM [inhibitor, partial curve, poor fit]"}
{"molecule": "COc1cc2ccccc2cc1C(=O)Nc1cc(-c2nc3ccccc3o2)ccc1C", "activity change, negative = inhibition": "inactive: -1.88%"}
{"molecule": "Cc1cccc(N(C)C(=O)CN(C)S(=O)(=O)c2ccc3[nH]c4c(c3c2)CCCC4)c1", "Potency": "inconclusive: 12.6 µM [inhibitor, full curve]"}
{"molecule": "CCc1ccc(NC2=CC(=O)CC(c3ccco3)C2)cc1", "note": "(stereo not given)", "Potency": "inconclusive: 44.7 µM [inhibitor, partial curve, poor fit]"}
{"molecule": "Cc1ccc(C(=O)NC(NC(=O)c2ccccc2)C(Cl)Cl)cc1", "note": "(stereo not given)", "Potency": "inconclusive: 112 µM [inhibitor, single point]"}
{"molecule": "O=S(=O)(c1ccccc1)N1CCN(Cc2c(O)ccc3ccccc23)CC1", "Potency": "active: 7.08 µM"}
{"molecule": "CCN1CCN(S(=O)(=O)Cc2ccccc2)CC1", "activity change, negative = inhibition": "inactive: -15.9%"}
{"molecule": "Cc1ccccc1C(=O)Nc1ccccc1N1CCN(C(=O)c2ccccc2)CC1", "activity change, negative = inhibition": "inactive: 8.18%"}
{"molecule": "COc1ccc(N2CCC[C@H]2/C=C/C(=O)OC(C)(C)C)cc1", "Potency": "inconclusive: 44.7 µM [inhibitor, partial curve, poor fit]"}
{"molecule": "Cc1ccccc1N1CCCN(Cc2cccc(CCN)c2)CC1", "activity change, negative = inhibition": "inactive: 4.19%"}
{"molecule": "CCOc1ccccc1N(CC)C(=O)Cn1ncc2c(=O)oc3ccccc3c21", "activity change, negative = inhibition": "inactive: 18%"}
{"molecule": "COc1ccc2[nH]c(C)c(C(=O)CN3CCCCC3C)c2c1", "note": "(stereo not given)", "Potency": "inconclusive: 28.2 µM [inhibitor, partial curve, poor fit]"}
{"molecule": "Cc1noc(C(C)N2CCN(c3oc(C4CC4)nc3C#N)CC2)n1", "note": "(stereo not given)", "activity change, negative = inhibition": "inactive: -20.8%"}
{"molecule": "C/C(=N\\NC(=S)Nc1cc(S(=O)(=O)N2CCOCC2)ccc1Cl)c1ccccc1F", "Potency": "inconclusive: 44.7 µM [inhibitor, partial curve, poor fit]"}
{"molecule": "N#C/C(=C\\c1cc(O)c(O)c(O)c1)C(N)=O", "Potency": "inconclusive: 0.447 µM [inhibitor, full curve, poor fit]"}
{"molecule": "CCC1(C)CC(CC(=O)OC(C)CN(C)C)(c2ccccc2)CCO1", "note": "(stereo not given)", "Potency": "inconclusive: 89.1 µM [inhibitor, single point]"}
{"molecule": "COc1ccc(S(=O)(=O)Nc2cccc(-c3ccc(N4CCCCCC4)nn3)c2)cc1", "activity change, negative = inhibition": "inactive: -16.6%"}
